Results as given in patent US20250283871A1, “COMPOSITIONS AND METHODS FOR MODULATING THE INTERACTION BETWEEN SS18-SSX FUSION ONCOPROTEIN AND NUCLEOSOMES” (Dana-Farber Cancer Institute, Inc., priority 2020, published 2025).

B1: HNRNPH1 (protein, UniProt P31943 1-449, looked up)
Heterogeneous nuclear …: MMLGTEGGEGFVVKVRGLPWSCSADEVQRFFSDCKIQNGAQGIRFIYTREGRPSGEAFVELESEDEVKLALKKDRETMGHRYVEVFKSNNVEMDWVLKHTGPNSPDTANDGFVRLRGLPFGCSKEEIVQFFSGLEIVPNGITLPVDFQGRSTGEAFVQFASQEIAEKALKKHKERIGHRYIEIFKSSRAEVRTHYDPPRKLMAMQRPGPYDRPGAGRGYNSIGRGAGFERMRRGAYGGGYGGYDDYNGYNDGYGFGSDRFGRDLNYCFSGMSDHRYGDGGSTFQSTTGHCVHMRGLPYRATENDIYNFFSPLNPVRVHIEIGPDGRVTGEADVEFATHEDAVAAMSKDKANMQHRYVELFLNSTAGASGGAYEHRYVELFLNSTAGASGGAYGSQMMGGMGLSNQSSYGGPASQQLSGGYGGGYGGQSSMSGYDQVLQENSSDFQSNIA
B2: UTP6 (protein, UniProt Q9NYH9 1-597, looked up)
U3 small nucleolar …: MAEIIQERIEDRLPELEQLERIGLFSHAEIKAIIKKASDLEYKIQRRTLFKEDFINYVQYEINLLELIQRRRTRIGYSFKKDEIENSIVHRVQGVFQRASAKWKDDVQLWLSYVAFCKKWATKTRLSKVFSAMLAIHSNKPALWIMAAKWEMEDRLSSESARQLFLRALRFHPECPKLYKEYFRMELMHAEKLRKEKEEFEKASMDVENPDYSEEILKGELAWIIYKNSVSIIKGAEFHVSLLSIAQLFDFAKDLQKEIYDDLQALHTDDPLTWDYVARRELEIESQTEEQPTTKQAKAVEVGRKEERCCAVYEEAVKTLPTEAMWKCYITFCLERFTKKSNSGFLRGKRLERTMTVFRKAHELKLLSECQYKQLSVSLLCYNFLREALEVAVAGTELFRDSGTMWQLKLQVLIESKSPDIAMLFEEAFVHLKPQVCLPLWISWAEWSEGAKSQEDTEAVFKKALLAVIGADSVTLKNKYLDWAYRSGGYKKARAVFKSLQESRPFSVDFFRKMIQFEKEQESCNMANIREYYERALREFGSADSDLWMDYMKEELNHPLGRPENCGQIYWRAMKMLQGESAEAFVAKHAMHQTGHL
B3: TBL3 (protein, UniProt Q12788 2-808, looked up)
Transducin beta-like protein 3: AETAAGVGRFKTNYAVERKIEPFYKGGKAQLDQTGQHLFCVCGTRVNILEVASGAVLRSLEQEDQEDITAFDLSPDNEVLVTASRALLLAQWAWQEGSVTRLWKAIHTAPVATMAFDPTSTLLATGGCDGAVRVWDIVRHYGTHHFRGSPGVVHLVAFHPDPTRLLLFSSATDAAIRVWSLQDRSCLAVLTAHYSAVTSLAFSADGHTMLSSGRDKICIIWDLQSCQATRTVPVFESVEAAVLLPEEPVSQLGVKSPGLYFLTAGDQGTLRVWEAASGQCVYTQAQPPGPGQELTHCTLAHTAGVVLTATADHNLLLYEARSLRLQKQFAGYSEEVLDVRFLGPEDSHVVVASNSPCLKVFELQTSACQILHGHTDIVLALDVFRKGWLFASCAKDQSVRIWRMNKAGQVMCVAQGSGHTHSVGTVCCSRLKESFLVTGSQDCTVKLWPLPKALLSKNTAPDNGPILLQAQTTQRCHDKDINSVAIAPNDKLLATGSQDRTAKLWALPQCQLLGVFSGHRRGLWCVQFSPMDQVLATASADGTIKLWALQDFSCLKTFEGHDASVLKVAFVSRGTQLLSSGSDGLVKLWTIKNNECVRTLDAHEDKVWGLHCSRLDDHALTGASDSRVILWKDVTEAEQAEEQARQEEQVVRQQELDNLLHEKRYLRALGLAISLDRPHTVLTVIQAIRRDPEACEKLEATMLRLRRDQKEALLRFCVTWNTNSRHCHEAQAVLGVLLRREAPEELLAYEGVRAALEALLPYTERHFQRLSRTLQAAAFLDFLWHNMKLPVPAAAPTPWETHKGALP
B4: ZC3H18 (protein, UniProt Q86VM9 1-953, looked up)
Zinc finger CCCH …: MDVAESPERDPHSPEDEEQPQGLSDDDILRDSGSDQDLDGAGVRASDLEDEESAARGPSQEEEDNHSDEEDRASEPKSQDQDSEVNELSRGPTSSPCEEEGDEGEEDRTSDLRDEASSVTRELDEHELDYDEEVPEEPAPAVQEDEAEKAGAEDDEEKGEGTPREEGKAGVQSVGEKESLEAAKEKKKEDDDGEIDDGEIDDDDLEEGEVKDPSDRKVRPRPTCRFFMKGNCTWGMNCRFIHPGVNDKGNYSLITKADPFPPNGAPPLGPHPLMPANPWGGPVVDEILPPPPPEPPTESAWERGLRHAKEVLKKATIRKEQEPDFEEKRFTVTIGEDEREFDKENEVFRDWNSRIPRDVRDTVLEPYADPYYDYEIERFWRGGQYENFRVQYTETEPYHNYRERERERERENRQRERERERERDRERERRQRERERERERERDKERQRRKEEWERERAKRDEKDRQHRDRDREKEREKEKGKPKPRSPQPPSRQAEPPKKEAATTGPQVKRADEWKDPWRRSKSPKKKLGVSVSPSRARRRRKTSASSASASNSSRSSSRSSSYSGSGSSRSRSRSSSYSSYSSRSSRHSSFSGSRSRSRSFSSSPSPSPTPSPHRPSIRTKGEPAPPPGKAGEKSVKKPAPPPAPPQATKTTAPVPEPTKPGDPREARRKERPARTPPRRRTLSGSGSGSGSSYSGSSSRSRSLSVSSVSSVSSATSSSSSAHSVDSEDMYADLASPVSSASSRSPAPAQTRKEKGKSKKEDGVKEEKRKRDSSTQPPKSAKPPAGGKSSQQPSTPQQAPPGQPQQGTFVAHKEIKLTLLNKAADKGSRKRYEPSDKDRQSPPPAKRPNTSPDRGSRDRKSGGRLGSPKPERQRGQNSKAPAAPADRKRQLSPQSKSSSKVTSVPGKASDPGAASTKSGKASTLSRREELLKQLKAVEDAIARKRAKIPGKA
B5: DDX27 (protein, UniProt Q96GQ7 1-765, looked up)
Probable ATP-dependent RNA …: MLADLGLIGTIGEDDEVPVEPESDSGDEEEEGPIVLGRRQKALGKNRSADFNPDFVFTEKEGTYDGSWALADVMSQLKKKRAATTLDEKIEKVRKKRKTEDKEAKSGKLEKEKEAKEGSEPKEQEDLQENDEEGSEDEASETDYSSADENILTKADTLKVKDRKKKKKKGQEAGGFFEDASQYDENLSFQDMNLSRPLLKAITAMGFKQPTPIQKACIPVGLLGKDICACAATGTGKTAAFALPVLERLIYKPRQAPVTRVLVLVPTRELGIQVHSVTRQLAQFCNITTCLAVGGLDVKSQEAALRAAPDILIATPGRLIDHLHNCPSFHLSSIEVLILDEADRMLDEYFEEQMKEIIRMCSHHRQTMLFSATMTDEVKDLASVSLKNPVRIFVNSNTDVAPFLRQEFIRIRPNREGDREAIVAALLTRTFTDHVMLFTQTKKQAHRMHILLGLMGLQVGELHGNLSQTQRLEALRRFKDEQIDILVATDVAARGLDIEGVKTVINFTMPNTIKHYVHRVGRTARAGRAGRSVSLVGEDERKMLKEIVKAAKAPVKARILPQDVILKFRDKIEKMEKDVYAVLQLEAEEKEMQQSEAQINTAKRLLEKGKEAVVQEPERSWFQTKEERKKEKIAKALQEFDLALRGKKKRKKFMKDAKKKGEMTAEERSQFEILKAQMFAERLAKRNRRAKRARAMPEEEPVRGPAKKQKQGKKSVFDEELTNTSKKALKQYRAGPSFEERKQLGLPHQRRGGNFKSKSRYKRRK
B6: RAD21 (protein, UniProt O60216 1-631, looked up)
Double-strand-break repair …: MFYAHFVLSKRGPLAKIWLAAHWDKKLTKAHVFECNLESSVESIISPKVKMALRTSGHLLLGVVRIYHRKAKYLLADCNEAFIKIKMAFRPGVVDLPEENREAAYNAITLPEEFHDFDQPLPDLDDIDVAQQFSLNQSRVEEITMREEVGNISILQENDFGDFGMDDREIMREGSAFEDDDMLVSTTTSNLLLESEQSTSNLNEKINHLEYEDQYKDDNFGEGNDGGILDDKLISNNDGGIFDDPPALSEAGVMLPEQPAHDDMDEDDNVSMGGPDSPDSVDPVEPMPTMTDQTTLVPNEEEAFALEPIDITVKETKAKRKRKLIVDSVKELDSKTIRAQLSDYSDIVTTLDLAPPTKKLMMWKETGGVEKLFSLPAQPLWNNRLLKLFTRCLTPLVPEDLRKRRKGGEADNLDEFLKEFENPEVPREDQQQQHQQRDVIDEPIIEEPSRLQESVMEASRTNIDESAMPPPPPQGVKRKAGQIDPEPVMPPQQVEQMEIPPVELPPEEPPNICQLIPELELLPEKEKEKEKEKEDDEEEEDEDASGGDQDQEERRWNKRTQQMLHGLQRALAKTGAESISLLELCRNTNRKQAAAKFYSFLVLKKQQAIELTQEEPYSDIIATPGPRFHII

System: BAF complex subunits and histone proteins
Test: Mass spectrometry proteomics of purified HA-SS18 WT and HA-SS18-SSX1 complexes (Tables 5A-5E)
Set-up: species or system human
[1] = HA-SS18SSX1_CHR_peptides: protein identified in the HA-SS18-SSX1 purification from solubilized chromatin (CHR), HEK-293T
[2] = HA-SS18SSX1 purification, NE (soluble nuclear extract) fraction, HEK-293T, peptides per identified protein
[3] = HA-SS18WT_CHR_peptides: HA-SS18 WT purification from nuclease-treated solubilized chromatin (CHR), HEK-293T, label = protein identified
[4] = HA-SS18WT_NE_peptides: HA-SS18 WT complexes purified from nuclear extract (NE), HEK-293T, label = protein identified (Gene Symbol)
[5] = HA-SS18SSX1_NE_peptides: protein co-purified with HA-SS18-SSX1 BAF complexes from soluble nuclear extract (NE), HEK-293T cells
[6] = HA-SS18WT_NE_peptides: proteins co-purified with HA-SS18 WT from nuclear extract (NE), HEK-293T
[7] = HA-SS18SSX1_NE_peptides (Table 5B), HA-SS18-SSX1 BAF complex purification from soluble nuclear extract, HEK-293T

Molecule | Total (total peptides) [1] | Unique (unique peptides) [1] | Total (total peptides) [2] | Unique (unique peptides) [2] | Total (peptides) [3] | Unique (peptides) [3] | Total (peptides) [4] | Unique (peptides) [4] | Total (peptides) [5] | Unique (peptides) [5] | Total (peptides) [6] | Unique (peptides) [6] | Total (peptides) [7] | Unique (peptides) [7]
B1 | 12 | 6 | 5 | 4 | 6 | 4 | 3 | 3 |  |  |  |  |  | 
B2 | 11 | 11 |  |  | 4 | 4 |  |  |  |  |  |  |  | 
B3 | 11 | 11 |  |  | 7 | 7 |  |  | 2 | 2 | 1 | 1 |  | 
B4 | 13 | 9 |  |  | 9 | 6 |  |  |  |  |  |  |  | 
B5 | 12 | 12 |  |  | 14 | 13 |  |  |  |  |  |  | 1 | 1
B6 | 11 | 11 |  |  | 10 | 9 |  |  |  |  |  |  |  | 
